# Source: the supplement of paper PMC8728848
# The list shows a part of the results.
# How the values were obtained:
# Experiment in all cases: glycan array binding signal (z-score within array); higher = stronger binding
# Conditions in all cases: glycan notation: IUPAC condensed, linker removed
# Fuc(a1-3)GlcNAc = biological target: Fuc(a1-3)GlcNAc
# Outline: (§1)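 Glycan array binding is given as a within-array Z-score, which can be read as non-binding when negative. The arrays, 3228 of them, came from the Consortium for Functional Glycomics database and were retained only where the protein sequence was available. Z-scores were averaged across arrays of the same protein sequence at different concentrations or buffers and across linkers.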
# [1] = biological target: Fuc(a1-3)[Gal(b1-4)]Glc6S
# Outline: as §1
# [2] = biological target: Fuc(a1-3)[Gal(b1-4)]GlcNAc
# Outline: as §1
# [3] = biological target: Fuc(a1-3)[Gal(b1-4)]GlcNAc(b1-2)Man
# Outline: as §1
# [4] = biological target: Fuc(a1-3)[Gal(b1-4)]GlcNAc(b1-2)Man(a1-3)[Fuc(a1-3)[Gal(b1-4)]GlcNAc(b1-2)Man(a1-6)]Man(b1-4)GlcNAc(b1-4)GlcNAc
# Outline: as §1
# [5] = biological target: Fuc(a1-3)[Gal(b1-4)]GlcNAc(b1-2)Man(a1-3)[Fuc(a1-3)[Gal(b1-4)]GlcNAc(b1-2)Man(a1-6)]Man(b1-4)GlcNAc(b1-4)[Fuc(a1-6)]GlcNAc
# Outline: as §1
# [6] = biological target: Fuc(a1-3)[Gal(b1-4)]GlcNAc(b1-3)Gal(b1-3)[Fuc(a1-4)]GlcNAc
# Outline: as §1
# [7] = biological target: Fuc(a1-3)[Gal(b1-4)]GlcNAc(b1-3)Gal(b1-4)[Fuc(a1-3)]GlcNAc
# Outline: as §1
# [8] = biological target: Fuc(a1-3)[Gal(b1-4)]GlcNAc(b1-3)Gal(b1-4)[Fuc(a1-3)]GlcNAc(b1-3)Gal(b1-4)[Fuc(a1-3)]GlcNAc
# Outline: as §1
# [9] = biological target: Fuc(a1-3)[Gal(b1-4)]GlcNAc(b1-3)GalNAc
# Outline: as §1
# [10] = biological target: Fuc(a1-3)[Gal(b1-4)]GlcNAc(b1-6)GalNAc
# Outline: as §1
# [11] = biological target: Fuc(a1-3)[Gal(b1-4)]GlcNAc(b1-6)[Gal(b1-3)GlcNAc(b1-3)]Gal(b1-4)Glc
# Outline: as §1
# [12] = biological target: Fuc(a1-3)[Gal(b1-4)]GlcNAc6S
# Outline: as §1
# [13] = biological target: Fuc(a1-3)[Gal3S(b1-4)]Glc
# Outline: as §1
# [14] = biological target: Fuc(a1-3)[Gal3S(b1-4)]GlcNAc
# Outline: as §1
# [15] = biological target: Fuc(a1-3)[Gal3S(b1-4)]GlcNAc6S
# Outline: as §1
# [16] = biological target: Fuc(a1-3)[GalNAc(b1-4)]GlcNAc
# Outline: as §1
# [17] = biological target: Fuc(a1-3)[GalNAc(b1-4)]GlcNAc6S
# Outline: as §1
# Fuc(a1-4)GlcNAc = biological target: Fuc(a1-4)GlcNAc
# Outline: as §1
# Fuc(b1-3)GlcNAc = biological target: Fuc(b1-3)GlcNAc
# Outline: as §1
# Gal(a1-2)Gal = biological target: Gal(a1-2)Gal
# Outline: as §1
# Gal(a1-3)Gal = biological target: Gal(a1-3)Gal
# Outline: as §1
# Gal(a1-3)Gal(b1-3)GlcNAc = biological target: Gal(a1-3)Gal(b1-3)GlcNAc
# Outline: as §1
# [18] = biological target: Gal(a1-3)Gal(b1-3)GlcNAc(b1-2)Man
# Outline: as §1
# [19] = biological target: Gal(a1-3)Gal(b1-3)GlcNAc(b1-2)Man(a1-3)[Gal(a1-3)Gal(b1-3)GlcNAc(b1-2)Man(a1-6)]Man(b1-4)GlcNAc(b1-4)GlcNAc
# Outline: as §1
# [20] = biological target: Gal(a1-3)Gal(b1-3)GlcNAc(b1-3)GalNAc
# Outline: as §1
# [21] = biological target: Gal(a1-3)Gal(b1-3)GlcNAc(b1-6)GalNAc
# Outline: as §1
# [22] = biological target: Gal(a1-3)Gal(b1-3)[Fuc(a1-4)]GlcNAc(b1-2)Man(a1-3)[Gal(a1-3)Gal(b1-3)[Fuc(a1-4)]GlcNAc(b1-2)Man(a1-6)]Man(b1-4)GlcNAc(b1-4)GlcNAc
# Outline: as §1
# Gal(a1-3)Gal(b1-4)Glc = biological target: Gal(a1-3)Gal(b1-4)Glc
# Outline: as §1
# Gal(a1-3)Gal(b1-4)GlcNAc = biological target: Gal(a1-3)Gal(b1-4)GlcNAc
# Outline: as §1
# [23] = biological target: Gal(a1-3)Gal(b1-4)GlcNAc(b1-2)Man
# Outline: as §1
# [24] = biological target: Gal(a1-3)Gal(b1-4)GlcNAc(b1-2)Man(a1-3)[Gal(a1-3)Gal(b1-4)GlcNAc(b1-2)Man(a1-6)]Man(b1-4)GlcNAc(b1-4)GlcNAc
# Outline: as §1
# [25] = biological target: Gal(a1-3)Gal(b1-4)GlcNAc(b1-3)GalNAc
# Outline: as §1
# [26] = biological target: Gal(a1-3)Gal(b1-4)GlcNAc(b1-6)GalNAc
# Outline: as §1
# [27] = biological target: Gal(a1-3)Gal(b1-4)[Fuc(a1-3)]GlcNAc
# Outline: as §1
# [28] = biological target: Gal(a1-3)Gal(b1-4)[Fuc(a1-3)]GlcNAc(b1-2)Man(a1-3)[Gal(a1-3)Gal(b1-4)[Fuc(a1-3)]GlcNAc(b1-2)Man(a1-6)]Man(b1-4)GlcNAc(b1-4)GlcNAc
# Outline: as §1
# Gal(a1-3)GalNAc = biological target: Gal(a1-3)GalNAc
# Outline: as §1
# [29] = biological target: Gal(a1-3)[Gal(a1-4)]Gal(b1-4)GlcNAc
# Outline: as §1
# [30] = biological target: Gal(a1-4)Gal(b1-3)GlcNAc(b1-2)Man(a1-3)[Gal(a1-4)Gal(b1-3)GlcNAc(b1-2)Man(a1-6)]Man(b1-4)GlcNAc(b1-4)GlcNAc
# Outline: as §1
# Gal(a1-4)Gal(b1-4)Glc = biological target: Gal(a1-4)Gal(b1-4)Glc
# Outline: as §1
# Gal(a1-4)Gal(b1-4)GlcNAc = biological target: Gal(a1-4)Gal(b1-4)GlcNAc
# Outline: as §1
# [31] = biological target: Gal(a1-4)Gal(b1-4)GlcNAc(b1-2)Man(a1-3)[Gal(a1-4)Gal(b1-4)GlcNAc(b1-2)Man(a1-6)]Man(b1-4)GlcNAc(b1-4)GlcNAc
# Outline: as §1
# [32] = biological target: Gal(a1-4)Gal(b1-4)GlcNAc(b1-3)Gal(b1-4)Glc
# Outline: as §1
# Gal(a1-4)GlcNAc = biological target: Gal(a1-4)GlcNAc
# Outline: as §1
# Gal(a1-6)Glc = biological target: Gal(a1-6)Glc
# Outline: as §1
binder,measurement,setting,value
Mincle (Bos taurus) (protein) MNSSTSPASQTERRCFSFQLFSWAIAGTSILLLSACFITRCVVTYSIFQLCDEKKFQPPGDSMELSCYNDGSGSVKNCCPLKWFHFQSSCYLFSPDTMSWRASLKNCSSMGAHLVVINTQEEQEFLYYTKPRKKEFYIGLTDQVTEGQWQWVDGTPFTKSLSFWDAGEPNNLVIVEDCATIRDSSNPRQNWNDVPCFFNMFRVCEMPERKI,glycan array binding signal (z-score),Fuc(a1-3)GlcNAc,0.348
same,glycan array binding signal (z-score),[1],-0.342
same,glycan array binding signal (z-score),[2],-0.284
same,glycan array binding signal (z-score),[3],-0.444
same,glycan array binding signal (z-score),[4],-0.045
same,glycan array binding signal (z-score),[5],1.85
same,glycan array binding signal (z-score),[6],-0.344
same,glycan array binding signal (z-score),[7],-0.254
same,glycan array binding signal (z-score),[8],-0.6
same,glycan array binding signal (z-score),[9],-0.25
same,glycan array binding signal (z-score),[10],-0.027
same,glycan array binding signal (z-score),[11],-0.943
same,glycan array binding signal (z-score),[12],-0.279
same,glycan array binding signal (z-score),[13],-0.083
same,glycan array binding signal (z-score),[14],-0.389
same,glycan array binding signal (z-score),[15],-0.116
same,glycan array binding signal (z-score),[16],-0.092
same,glycan array binding signal (z-score),[17],-0.987
same,glycan array binding signal (z-score),Fuc(a1-4)GlcNAc,0.939
same,glycan array binding signal (z-score),Fuc(b1-3)GlcNAc,0.624
same,glycan array binding signal (z-score),Gal(a1-2)Gal,-0.042
same,glycan array binding signal (z-score),Gal(a1-3)Gal,0.655
same,glycan array binding signal (z-score),Gal(a1-3)Gal(b1-3)GlcNAc,-0.405
same,glycan array binding signal (z-score),[18],0.294
same,glycan array binding signal (z-score),[19],1.32
same,glycan array binding signal (z-score),[20],0.019
same,glycan array binding signal (z-score),[21],-0.514
same,glycan array binding signal (z-score),[22],1.26
same,glycan array binding signal (z-score),Gal(a1-3)Gal(b1-4)Glc,0.058
same,glycan array binding signal (z-score),Gal(a1-3)Gal(b1-4)GlcNAc,1.19
same,glycan array binding signal (z-score),[23],0.954
same,glycan array binding signal (z-score),[24],-0.011
same,glycan array binding signal (z-score),[25],-0.713
same,glycan array binding signal (z-score),[26],-0.547
same,glycan array binding signal (z-score),[27],-0.559
same,glycan array binding signal (z-score),[28],1.7
same,glycan array binding signal (z-score),Gal(a1-3)GalNAc,-0.806
same,glycan array binding signal (z-score),[29],0.608
same,glycan array binding signal (z-score),[30],0.009
same,glycan array binding signal (z-score),Gal(a1-4)Gal(b1-4)Glc,-0.565
same,glycan array binding signal (z-score),Gal(a1-4)Gal(b1-4)GlcNAc,-0.633
same,glycan array binding signal (z-score),[31],0.919
same,glycan array binding signal (z-score),[32],-0.763
same,glycan array binding signal (z-score),Gal(a1-4)GlcNAc,-0.878
same,glycan array binding signal (z-score),Gal(a1-6)Glc,-0.584

# Looked up one by one from the list above:
binder,measurement,setting,value
Mincle (Bos taurus) (protein) MNSSTSPASQTERRCFSFQLFSWAIAGTSILLLSACFITRCVVTYSIFQLCDEKKFQPPGDSMELSCYNDGSGSVKNCCPLKWFHFQSSCYLFSPDTMSWRASLKNCSSMGAHLVVINTQEEQEFLYYTKPRKKEFYIGLTDQVTEGQWQWVDGTPFTKSLSFWDAGEPNNLVIVEDCATIRDSSNPRQNWNDVPCFFNMFRVCEMPERKI,glycan array binding signal (z-score),[12],-0.279
same,glycan array binding signal (z-score),[28],1.7
